AC50 data for 39 molecules are collected here from PubChem BioAssay AID493014 (National Center for Advancing Translational Sciences (NCATS), 2011).

Some of the results follow. Shown are side measurements of this screen, not its main read-out; they come without a call. Most of these compounds were active or inconclusive in the main read-out, so they are no random draw. Potencies come from curve fits of mixed quality, noted in brackets.

A short description of the experiment: qHTS Assay to Find Inhibitors of Chronic Active B-Cell Receptor Signaling. Conditions: ABC-DLBCL IkBa-CBG/CBR reporter, luminescence ratio (green luciferase fused to IkBa over red control in TMD8 lymphoma cells), 4 h. In a few lines:
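Concentration-response series (up to 46 uM) were applied to TMD8 dual-reporter cells for 4 h at 37C with doxycycline. Green/red ratio, after filter-overlap correction, defined %Activity; red signal alone was normalised to basal cells and zero luminescence.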
In general terms: qHTS replaces the single test concentration by a dilution series.

The mark [1] stands for this setting: measured here: CBR red luminescence, cell number.
The mark [2] stands for this setting: measured here: IkBa-CBG green luminescence.

With `C[C@H]1CN([C@@H](C)CO)C(=O)Cc2cc(NC(=O)CCC(F)(F)F)ccc2O[C@H]1CN(C)S(=O)(=O)c1ccc(F)cc1`, the AC50 is 18.4 µM [rising, single point] under setting [1] and 16.4 µM [falling, partial curve, poor fit] under setting [2].
As for `Cc1nc2ccccc2c2oc(C(=O)NCC3CCCO3)cc12` (centres undefined), the half-maximal activity concentration (AC50) under setting [1] was 10 µM [falling, partial curve, poor fit].
Same read-out and setting: to `CCOC(=O)C1=CN(Cc2cccc(F)c2)S(=O)(=O)NC1c1cccc(OC)c1` (centres undefined) belongs 32.6 µM [falling, single point]; to `COc1ccc(NC(=O)CN(C)C(=O)/C=C/c2cn(-c3ccccc3)nc2-c2ccc(F)cc2)cc1`, 8.2 µM [rising, partial curve, poor fit].
In the case of `O=C(Cn1ncc(Cl)c(Cl)c1=O)c1ccc2c(c1)OCCO2`, the half-maximal activity concentration (AC50) by setting is: under setting [1], 10.3 µM [falling, partial curve, poor fit]; under setting [2], 18.4 µM [rising, partial curve, poor fit].
For the molecule `CCCc1cc(=O)oc2c(C)c(OCC(=O)NCCCN3CCOCC3)ccc12`, the AC50 under setting [1] is 35.5 µM [rising, single point].
Consider `CCN(CC)c1ccc(/C=N/Nc2nc3ccccc3[nH]2)cc1`, for which the AC50 was 20.6 µM [falling, single point] under setting [1] and 6.51 µM [falling, single point] under setting [2].
In the case of `CCC1CCc2c(sc(NC(=O)c3ccoc3C)c2C(N)=O)C1` (centres undefined), the AC50 under setting [1] is 2.91 µM [rising, single point].
Regarding `CCOC(=O)c1sc(NC(=O)/C=C/c2ccccc2)nc1C`, the half-maximal activity concentration (AC50) under setting [1] was 0.082 µM [falling, full curve, poor fit].
The same measure, in the same setting: then `COc1ccc2nc3sc(C(=O)NCc4cccs4)c(N)c3cc2c1`, with 0.282 µM [falling, full curve, poor fit]; and `COC(=O)C(NC(=O)C(CC(C)C)NC(=O)C1CCC(C)CC1)C(C)C` (centres undefined), with 29.1 µM [falling, single point]; and `Cc1ccc(NS(=O)(=O)c2cc(NC(=O)c3ccc4c(c3)NC(=O)CS4)ccc2C)c(C)c1`, with 14.1 µM [falling, single point].
Take `CC/C(=C(/CC)c1ccc(O)cc1)c1ccc(O)cc1`: the concentration at half-maximal activity (AC50) under setting [1] is 35.5 µM [falling, single point].
Consider `Cc1nn2c(N)c(C#N)cnc2c1-c1ccc(Cl)cc1`, for which the AC50 under setting [1] was 3.66 µM [rising, partial curve, poor fit].
Consider `COc1ccc(OC)c(-c2cc(C(=O)NCc3ccco3)no2)c1`, for which the concentration at half-maximal activity (AC50) under setting [2] was 15.8 µM [falling, partial curve, poor fit].
For `Cc1nn(-c2ccccc2)c(C)c1C(=O)OCC(=O)N(C)C1CCS(=O)(=O)C1` (centres undefined), the concentration at half-maximal activity (AC50) under setting [1] was 0.282 µM [falling, full curve].
With `CCC(C(=O)NC1CCCC1)N(C(=O)Cn1nnc(-c2ccc(OC)c(OC)c2)n1)C1CCCCC1` (centres undefined), the AC50 under setting [1] is 35.5 µM [falling, single point].
Turning to `COc1ccc(Nc2nc(-c3sc(C)nc3C)cs2)cc1`, the concentration at half-maximal activity (AC50) runs as follows: under setting [1], 2.24 µM [rising, full curve, poor fit]; under setting [2], 11.2 µM [falling, partial curve, poor fit].
Regarding `CNC(=O)CC1C(=O)N(c2ccc(OC)cc2)C(=S)N1NC(=O)c1cccc(F)c1` (centres undefined), under setting [1], the AC50 is 8.91 µM [rising, partial curve, poor fit].
Still for that read-out and setting: to `COc1cccc(NC(=O)c2ncc(Cl)c(Cl)c2Cl)c1` belongs 12.6 µM [falling, partial curve].
As to `O=C(Nc1ccc(Cl)c(Cl)c1)C1=Cc2ccccc2OC1`, the AC50 under setting [1] is 18.4 µM [falling, single point] and the AC50 under setting [2] is 32.6 µM [rising, partial curve, poor fit].
As to `CCc1ccc(NC(=S)NC2CC3CCCC(C2)N3Cc2ccccc2)cc1` (centres undefined), the concentration at half-maximal activity (AC50) under setting [1] was 35.5 µM [falling, single point].
Still for that read-out and setting: to `Cc1cc(C)c(S(=O)(=O)c2ccccc2Cl)c(=O)[nH]1` belongs 20 µM [rising, single point]; to `CCOc1ccc(CC2NCCc3cc(OCC)c(OCC)cc32)cc1OCC` (centres undefined), 35.5 µM [falling, single point].
Turning to `COC(=O)CSc1nc2ccc(NC(C)=O)cc2s1`, the AC50 under setting [1] was 8.91 µM [falling, partial curve].
On the same count and under the same terms, then `CC(C)NC(=S)N/N=C/c1cccs1`, with 29.1 µM [rising, single point]; and `COc1ccc(/C=C2/C(=O)ON=C2C)cc1Br`, with 0.794 µM [rising, partial curve, poor fit]; and `CN(C)CCCN(Cc1ccccc1)C(=S)Nc1cccc(C(F)(F)F)c1`, with 32.6 µM [falling, single point].
Still for that read-out and setting: then `Cc1ccnc(NC(=O)CCCOc2cc(=O)n(C)c3ccccc23)c1`, with 35.5 µM [falling, single point]; and `CC(C)(CNC(=O)c1cccs1)CNC(=O)c1cccs1`, with 31.6 µM [falling, partial curve, poor fit].
Regarding `O=C(CCCC(=O)OCC(Cl)=C(Cl)Cl)Nc1ccccc1`, under setting [1], the AC50 is 29.1 µM [falling, single point].
Regarding `Brc1ccc(-c2cn3ccccc3n2)cc1`, the AC50 under setting [1] is 10 µM [falling, single point].
As to `c1nc(N2CCCCCC2)c2[nH]cnc2n1`, under setting [1], the half-maximal activity concentration (AC50) was 29.1 µM [falling, partial curve, poor fit].
Turning to `O=C(NCC1CCCO1)c1nc2c(nnn2Cc2ccc(F)cc2)c(=O)[nH]1` (centres undefined), under setting [1], the half-maximal activity concentration (AC50) is 5.62 µM [rising, single point].
Still for that read-out and setting: then `N#Cc1c(-c2ccco2)nc(SCc2ccc(F)cc2)[nH]c1=O`, with 0.326 µM [rising, partial curve, poor fit].
As to `O=C(CSc1nc2c(c(=O)n1-c1ccc(Br)cc1)SCC2)NCc1ccco1`, the AC50 under setting [1] is 6.51 µM [rising, partial curve, poor fit].
`CCc1nnc(NC(=O)C2CCCN2S(=O)(=O)c2ccc(F)cc2)s1` (centres undefined): the AC50 under setting [1] was 16.4 µM [rising, single point].
Take `N#CC1CC(c2ccccc2)Nc2cc(Cl)ccc2N1` (centres undefined): the concentration at half-maximal activity (AC50) under setting [1] was 5.62 µM [falling, full curve, poor fit].
On to `O=C(Nc1ccc(Cl)cc1)N1CCC(CN2CCCCCC2)CC1`, for which the AC50 under setting [1] is 14.1 µM [rising, partial curve].

In general, AC50 refers to the midpoint of the concentration-response curve, whichever way the signal moves.
